Test [1] has as its target human Skp1 (endogenous, HeLa cells) (human) (UniProt P63208). The test is described as follows: anti-Flag co-immunoprecipitation from transfected HeLa cells, immunoblot. Background: Immunoblotting shows a protein as a band on a membrane.
For test [2] the target is unchanged. Put plainly: anti-Flag co-immunoprecipitation from transfected HeLa cells, immunoblot; endogenous partner.
The target of a further test is His-tagged Skp1 (human) (UniProt P63208). The test is described as follows: pull-down of in vitro translated 35S-FBP on His-Skp1 Nickel-agarose beads, autoradiography.

By UniProt entry, the sequences of proteins in these tests, tags left out. Where a name states a change or a piece, a line headed by the entry shows the natural chain unless it says otherwise. Residues count along the entry.
UniProt P63208: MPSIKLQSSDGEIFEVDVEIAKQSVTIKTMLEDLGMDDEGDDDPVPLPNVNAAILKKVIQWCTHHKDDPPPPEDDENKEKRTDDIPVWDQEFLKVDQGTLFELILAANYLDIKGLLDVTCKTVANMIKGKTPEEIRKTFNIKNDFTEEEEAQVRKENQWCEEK
human Skp1 (endogenous, HeLa cells): residues 2-163 of P63208
UniProt Q9Y297: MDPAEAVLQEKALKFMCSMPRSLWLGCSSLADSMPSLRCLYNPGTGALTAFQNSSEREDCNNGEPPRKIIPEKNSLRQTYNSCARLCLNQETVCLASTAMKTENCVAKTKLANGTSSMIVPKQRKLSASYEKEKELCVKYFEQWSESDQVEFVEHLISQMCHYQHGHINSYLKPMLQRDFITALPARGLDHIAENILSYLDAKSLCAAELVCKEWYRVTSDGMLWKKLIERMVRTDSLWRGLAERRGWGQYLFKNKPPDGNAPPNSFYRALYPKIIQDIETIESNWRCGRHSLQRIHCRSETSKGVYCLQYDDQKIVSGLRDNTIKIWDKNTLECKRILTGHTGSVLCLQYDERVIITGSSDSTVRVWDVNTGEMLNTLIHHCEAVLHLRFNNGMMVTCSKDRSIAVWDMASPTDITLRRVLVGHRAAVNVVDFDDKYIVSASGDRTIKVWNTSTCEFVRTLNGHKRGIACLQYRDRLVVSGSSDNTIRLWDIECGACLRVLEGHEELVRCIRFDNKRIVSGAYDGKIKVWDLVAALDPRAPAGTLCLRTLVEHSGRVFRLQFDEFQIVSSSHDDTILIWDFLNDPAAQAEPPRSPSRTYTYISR
UniProt Q9UKT5: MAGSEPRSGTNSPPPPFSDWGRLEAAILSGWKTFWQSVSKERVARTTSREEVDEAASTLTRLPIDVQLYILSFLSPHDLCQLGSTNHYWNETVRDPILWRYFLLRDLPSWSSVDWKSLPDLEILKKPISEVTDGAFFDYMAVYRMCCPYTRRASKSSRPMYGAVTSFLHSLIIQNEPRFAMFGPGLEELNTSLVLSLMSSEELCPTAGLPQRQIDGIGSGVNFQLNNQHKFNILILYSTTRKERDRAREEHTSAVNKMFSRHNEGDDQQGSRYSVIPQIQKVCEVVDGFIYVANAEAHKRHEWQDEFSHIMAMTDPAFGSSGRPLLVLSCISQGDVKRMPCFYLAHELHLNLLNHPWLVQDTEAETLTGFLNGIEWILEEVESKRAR

These are yes or no findings as the source states them, for the method shown. In cells and extracts the contact can be indirect. Some entries that bind do so weakly or less than the wild type.

Regarding “Flag-tagged FBP1 (from UniProt Q9Y297 1-605)”, the binding entry in test [1] and in test [2] was “binds” throughout.

For “Flag-tagged FBP4 (from UniProt Q9UKT5 1-387)”, the binding result in test [1] and in test [2] was “binds” each time.

As to “human F-box protein FBP1 (from UniProt Q9Y297 1-605)”, the binding entry with His-tagged Skp1 (human) is given as “binds”.
